# Taken from: PubChem BioAssay AID1259254 (NCATS, 2017)
# Aim: 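Gene knock-downs that lead to re-replication, shown by excess G2 DNA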 (primary screen)
# Cell system: human HCT116 colorectal cancer cells
# Knock-down reagent: single siRNA against human genes
# Timing: 3 days
# Read-out: 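Imaged Hoechst DNA stain sorts each cell into a cycle phase by DNA amount; per plate, G2 fraction set to 0% for non-targeting and 100% for GMNN siRNA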
# Scale: G2 robust z-score and G2 cells, % of GMNN control: higher = more G2 cells, more excess DNA replication; raw share of cells in G2: higher = larger share of cells with G2 DNA content
# Active means: 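Active siRNAs have a G2 robust z of 5 or more median absolute deviations over the median, which in these data means about 38% or higher of GMNN control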
# The deposit covers about 59,000 reagents; below is an unselected part. In the full data, about 1,550 (2.6%) were called active. 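G2 share is only a proxy for re-replication; each gene was hit by three separate siRNAs, and active genes were retested.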 Raw values vary from plate to plate and are shown uncorrected. Reagents against one gene are numbered here. The record does not give: the amount of reagent.
G2 robust z-score,"G2 cells, % of GMNN control",raw share of cells in G2 (%),outcome,gene symbol,reagent no.
-0.349,0.515,4.04,inactive,MYCBP2 (MYC binding protein 2),1
0.587,7.09,6.53,inactive,MYCBP2 (MYC binding protein 2),2
-0.674,-1.77,5.66,inactive,MYCBP2 (MYC binding protein 2),3
-0.934,-3.61,3.53,inactive,XRCC4 (X-ray repair cross complementing 4),1
-0.0305,2.75,4.99,inactive,XRCC4 (X-ray repair cross complementing 4),2
-0.984,-3.96,1.95,inactive,XRCC4 (X-ray repair cross complementing 4),3
0.796,8.57,8.34,inactive,TSBP1 (testis expressed basic protein 1),1
0.76,8.31,7.57,inactive,TSBP1 (testis expressed basic protein 1),2
0.104,3.7,4.56,inactive,TSBP1 (testis expressed basic protein 1),3
0.762,8.33,6.92,inactive,ASH1L-AS1 (ASH1L antisense RNA 1),1
0.152,4.04,4.72,inactive,ASH1L-AS1 (ASH1L antisense RNA 1),2
-0.628,-1.45,2.58,inactive,ASH1L-AS1 (ASH1L antisense RNA 1),3
-0.451,-0.204,4.65,inactive,ABCA2 (ATP binding cassette subfamily A member 2),1
2.6,21.3,12.6,inactive,ABCA2 (ATP binding cassette subfamily A member 2),2
0.794,8.56,7.18,inactive,ABCA2 (ATP binding cassette subfamily A member 2),3
-0.162,1.83,3.68,inactive,CASC16 (cancer susceptibility 16),1
1.67,14.7,9.23,inactive,CASC16 (cancer susceptibility 16),2
0.967,9.77,6.79,inactive,CASC16 (cancer susceptibility 16),3
-0.297,0.877,4.69,inactive,FAM234B (family with sequence similarity 234 member B),1
-0.21,1.49,5.17,inactive,FAM234B (family with sequence similarity 234 member B),2
1.99,17,8.4,inactive,FAM234B (family with sequence similarity 234 member B),3

Quoted from the listing for reference:
G2 robust z-score,"G2 cells, % of GMNN control",raw share of cells in G2 (%),outcome,gene symbol,reagent no.
0.967,9.77,6.79,inactive,CASC16 (cancer susceptibility 16),3
-0.297,0.877,4.69,inactive,FAM234B (family with sequence similarity 234 member B),1
-0.21,1.49,5.17,inactive,FAM234B (family with sequence similarity 234 member B),2
1.99,17,8.4,inactive,FAM234B (family with sequence similarity 234 member B),3

The results go on:
G2 robust z-score,"G2 cells, % of GMNN control",raw share of cells in G2 (%),outcome,gene symbol,reagent no.
4.47,34.4,18.7,inactive,TCEAL4 (transcription elongation factor A like 4),1
2.05,17.4,11.9,inactive,TCEAL4 (transcription elongation factor A like 4),2
1.23,11.6,5.56,inactive,TCEAL4 (transcription elongation factor A like 4),3
2.9,23.4,11.9,inactive,SNX27 (sorting nexin 27),1
-1.17,-5.24,1.9,inactive,SNX27 (sorting nexin 27),2
-0.372,0.353,2.51,inactive,SNX27 (sorting nexin 27),3
-0.394,0.197,5.42,inactive,TTI1 (TELO2 interacting protein 1),1
-0.0187,2.84,5.13,inactive,TTI1 (TELO2 interacting protein 1),2
3.67,28.8,13.9,inactive,TTI1 (TELO2 interacting protein 1),3
0.0737,3.49,4.34,inactive,RNF186 (ring finger protein 186),1
-0.139,1.99,4.31,inactive,RNF186 (ring finger protein 186),2
1.47,13.3,9.87,inactive,RNF186 (ring finger protein 186),3
2.48,20.4,10,inactive,ZMYND12 (zinc finger MYND-type containing 12),1
-0.418,0.0286,5.92,inactive,ZMYND12 (zinc finger MYND-type containing 12),2
2.74,22.2,10.6,inactive,ZMYND12 (zinc finger MYND-type containing 12),3
-1.21,-5.58,3.85,inactive,STK26 (serine/threonine kinase 26),1
0.00825,3.03,6.29,inactive,STK26 (serine/threonine kinase 26),2
-0.337,0.593,3.87,inactive,STK26 (serine/threonine kinase 26),3
3.66,28.7,14.7,inactive,IDUA (alpha-L-iduronidase),1
-1.08,-4.62,3.93,inactive,IDUA (alpha-L-iduronidase),2
-0.639,-1.53,4.49,inactive,IDUA (alpha-L-iduronidase),3
0.921,9.45,9.59,inactive,YEATS4 (YEATS domain containing 4),1
5.35,40.6,17.8,active,YEATS4 (YEATS domain containing 4),2
0.402,5.8,6.42,inactive,YEATS4 (YEATS domain containing 4),3
-0.4,0.155,5.71,inactive,SIPA1L2 (signal induced proliferation associated 1 like 2),1
2.92,23.5,12.7,inactive,SIPA1L2 (signal induced proliferation associated 1 like 2),2
-0.406,0.108,4.26,inactive,SIPA1L2 (signal induced proliferation associated 1 like 2),3
